Data as given in article PMC6838331.
No constants are given. Whether binding was seen depends on the method and setting. In cells and extracts the contact can be indirect. Some entries that bind do so weakly or less than the wild type. Sequences can lack the tags named with a protein.

Protein sequences, listed by entry. Tags and fused reporters are not part of them.
UniProt Q92800: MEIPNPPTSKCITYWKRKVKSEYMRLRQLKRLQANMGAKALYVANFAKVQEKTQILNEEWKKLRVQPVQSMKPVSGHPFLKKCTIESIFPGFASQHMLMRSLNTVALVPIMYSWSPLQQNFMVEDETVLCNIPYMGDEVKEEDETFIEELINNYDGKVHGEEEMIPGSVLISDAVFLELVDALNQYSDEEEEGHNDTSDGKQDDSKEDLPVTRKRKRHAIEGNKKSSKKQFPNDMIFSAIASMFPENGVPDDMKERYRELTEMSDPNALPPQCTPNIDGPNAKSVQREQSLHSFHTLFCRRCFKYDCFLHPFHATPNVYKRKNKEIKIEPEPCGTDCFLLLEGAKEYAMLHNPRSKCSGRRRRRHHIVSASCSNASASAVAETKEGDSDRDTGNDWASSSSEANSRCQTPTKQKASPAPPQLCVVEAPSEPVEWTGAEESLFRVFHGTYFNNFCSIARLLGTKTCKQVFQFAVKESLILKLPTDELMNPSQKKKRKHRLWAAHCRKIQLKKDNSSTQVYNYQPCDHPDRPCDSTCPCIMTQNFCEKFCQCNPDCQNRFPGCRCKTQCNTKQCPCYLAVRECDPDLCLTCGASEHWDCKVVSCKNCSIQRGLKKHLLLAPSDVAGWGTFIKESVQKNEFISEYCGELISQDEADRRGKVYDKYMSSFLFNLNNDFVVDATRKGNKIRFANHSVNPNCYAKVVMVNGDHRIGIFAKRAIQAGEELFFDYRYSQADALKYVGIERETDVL

Biological target: T1, FLAG-ETO-W (wild type) (UniProt Q06455)
T1 sequence: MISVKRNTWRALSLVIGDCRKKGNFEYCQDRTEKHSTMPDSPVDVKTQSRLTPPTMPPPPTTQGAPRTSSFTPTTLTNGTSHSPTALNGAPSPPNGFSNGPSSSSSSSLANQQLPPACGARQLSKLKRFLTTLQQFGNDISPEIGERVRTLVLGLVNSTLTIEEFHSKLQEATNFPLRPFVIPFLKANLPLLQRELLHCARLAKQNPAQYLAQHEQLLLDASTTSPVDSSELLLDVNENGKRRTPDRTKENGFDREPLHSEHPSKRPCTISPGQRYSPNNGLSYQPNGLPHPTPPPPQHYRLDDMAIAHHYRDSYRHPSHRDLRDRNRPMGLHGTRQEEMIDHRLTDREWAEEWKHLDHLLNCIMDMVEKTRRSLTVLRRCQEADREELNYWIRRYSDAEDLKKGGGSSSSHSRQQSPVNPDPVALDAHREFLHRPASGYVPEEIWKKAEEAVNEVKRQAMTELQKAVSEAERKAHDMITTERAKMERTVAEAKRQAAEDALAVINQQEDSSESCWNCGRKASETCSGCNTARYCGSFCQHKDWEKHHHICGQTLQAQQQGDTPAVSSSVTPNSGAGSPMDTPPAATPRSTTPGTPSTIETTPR
Experiment: co-IP; ETO immune complex probed for EZH1 (Supplementary Fig. 3a); cells and constructs not given

- binding: binds
Substance: His-EZH1-W (wild type) (from UniProt Q92800 1-747)
